PubChem BioAssay AID1053208 | Peter MacCallum Cancer Centre – 2014
This is one part, drawn at random, of about 17,000 deposited reagents. Over the whole deposit, 788 (4.7%) were called active. 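Calls rest on z-score classes alone; an extra cut-off of viability at most 70% of control was not applied to them.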 Some reagents were tested in more than one well and are listed for each. Not all columns of the deposit are shown.

Assay: 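Find knock-downs that sensitise mouse osteosarcoma cells to doxorubicin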 (primary screen)
System: mouse osteosarcoma cells, early-passage culture from an engineered mouse model of fibroblastic bone tumour
Knock-down reagent: siRNA pool against mouse genes, 40 nM
Duration: about 120 h (48 h before drug, then 72 h with drug)
Challenge: doxorubicin 100 nM for 72 h, roughly 30-40% inhibitory dose
Detection: 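Luminescent ATP signal taken as viability with or without 100 nM doxorubicin for 72 h; mean of two wells set against non-targeting siRNA and turned into robust z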
Direction: viability z-score with doxorubicin: higher = more viable cells under doxorubicin; viability z-score without drug: higher = more viable cells with knock-down alone
Call rule: 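a pool counts as active when its viability z-score with doxorubicin is -2 or below and its z-score without drug lies between -2 and 2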

Tmem106a → combined z-score class = no change with or without drug; viability z-score with doxorubicin = 0.45; viability z-score without drug = 0.17; Outcome = inactive
Trpv4 → combined z-score class = no change with or without drug; viability z-score with doxorubicin = 0.67; viability z-score without drug = 1.52; Outcome = inactive
Rer1 → combined z-score class = no change with or without drug; viability z-score with doxorubicin = 0.56; viability z-score without drug = 0.34; Outcome = inactive
Wfdc15b → combined z-score class = no change with or without drug; viability z-score with doxorubicin = 0; viability z-score without drug = 0; Outcome = inactive
Calcoco1 → combined z-score class = no change with or without drug; viability z-score with doxorubicin = 1.46; viability z-score without drug = 1.18; Outcome = inactive
Or14c39 → combined z-score class = no change with or without drug; viability z-score with doxorubicin = 0.9; viability z-score without drug = -0.17; Outcome = inactive
Pold2 → combined z-score class = low cell count with doxorubicin only; viability z-score with doxorubicin = -5.17; viability z-score without drug = -1.85; Outcome = active
Adam1b → combined z-score class = no change with or without drug; viability z-score with doxorubicin = 0.22; viability z-score without drug = -0.51; Outcome = inactive
Neu1 → combined z-score class = no change with or without drug; viability z-score with doxorubicin = 0.67; viability z-score without drug = 0.34; Outcome = inactive
Msh5 → combined z-score class = no change with or without drug; viability z-score with doxorubicin = 0.79; viability z-score without drug = -1.52; Outcome = inactive
Abhd5 → combined z-score class = no change with or without drug; viability z-score with doxorubicin = 0.34; viability z-score without drug = -0.17; Outcome = inactive
Spag9 → combined z-score class = no change with or without drug; viability z-score with doxorubicin = 0.67; viability z-score without drug = -0.17; Outcome = inactive
Fkbp7 → combined z-score class = no change with or without drug; viability z-score with doxorubicin = 0.9; viability z-score without drug = 0.51; Outcome = inactive
Ppp3r1 → combined z-score class = no change with or without drug; viability z-score with doxorubicin = 0.79; viability z-score without drug = -0.34; Outcome = inactive
Serpinb1c → combined z-score class = no change with or without drug; viability z-score with doxorubicin = 0.79; viability z-score without drug = 0.84; Outcome = inactive
Artn → combined z-score class = no change with or without drug; viability z-score with doxorubicin = 1.24; viability z-score without drug = 0.84; Outcome = inactive
Galnt18 → combined z-score class = high cell count with doxorubicin only; viability z-score with doxorubicin = 2.36; viability z-score without drug = 0.84; Outcome = inactive
Gjc3 → combined z-score class = no change with or without drug; viability z-score with doxorubicin = 0.67; viability z-score without drug = 1.69; Outcome = inactive
Tdrd7 → combined z-score class = no change with or without drug; viability z-score with doxorubicin = -0.67; viability z-score without drug = 0.51; Outcome = inactive

Reprinted from above, 4 entries:
Wfdc15b → combined z-score class = no change with or without drug; viability z-score with doxorubicin = 0; viability z-score without drug = 0; Outcome = inactive
Calcoco1 → combined z-score class = no change with or without drug; viability z-score with doxorubicin = 1.46; viability z-score without drug = 1.18; Outcome = inactive
Or14c39 → combined z-score class = no change with or without drug; viability z-score with doxorubicin = 0.9; viability z-score without drug = -0.17; Outcome = inactive
Pold2 → combined z-score class = low cell count with doxorubicin only; viability z-score with doxorubicin = -5.17; viability z-score without drug = -1.85; Outcome = active

More entries:
Kcnh5 → combined z-score class = no change with or without drug; viability z-score with doxorubicin = -1.46; viability z-score without drug = -1.35; Outcome = inactive
Atp5mc3 → combined z-score class = no change with or without drug; viability z-score with doxorubicin = 0.67; viability z-score without drug = 0.17; Outcome = inactive
Pdia2 → combined z-score class = no change with or without drug; viability z-score with doxorubicin = 0.22; viability z-score without drug = -0.17; Outcome = inactive
Acaa2 → combined z-score class = no change with or without drug; viability z-score with doxorubicin = 1.01; viability z-score without drug = 1.69; Outcome = inactive
Pck2 → combined z-score class = no change with or without drug; viability z-score with doxorubicin = 0; viability z-score without drug = 0.34; Outcome = inactive
Pck2 → combined z-score class = no change with or without drug; viability z-score with doxorubicin = -0.34; viability z-score without drug = 0.51; Outcome = inactive
Rnase9 → combined z-score class = low cell count with doxorubicin only; viability z-score with doxorubicin = -2.47; viability z-score without drug = -0.51; Outcome = active
Entpd6 → combined z-score class = no change with or without drug; viability z-score with doxorubicin = 0.34; viability z-score without drug = 0.84; Outcome = inactive
Mmadhc → combined z-score class = no change with or without drug; viability z-score with doxorubicin = -1.35; viability z-score without drug = 0.34; Outcome = inactive
Ccdc169 → combined z-score class = no change with or without drug; viability z-score with doxorubicin = -0.22; viability z-score without drug = -0.17; Outcome = inactive
Or8g18 → combined z-score class = no change with or without drug; viability z-score with doxorubicin = -1.24; viability z-score without drug = -1.01; Outcome = inactive
Cxcl2 → combined z-score class = no change with or without drug; viability z-score with doxorubicin = 0.22; viability z-score without drug = -1.85; Outcome = inactive
Tfpi2 → combined z-score class = no change with or without drug; viability z-score with doxorubicin = 0.9; viability z-score without drug = -0.51; Outcome = inactive
Pcyt1a → combined z-score class = no change with or without drug; viability z-score with doxorubicin = 0.45; viability z-score without drug = 1.85; Outcome = inactive
Capg → combined z-score class = no change with or without drug; viability z-score with doxorubicin = -0.45; viability z-score without drug = -0.51; Outcome = inactive
Nlrp4f → combined z-score class = no change with or without drug; viability z-score with doxorubicin = -0.11; viability z-score without drug = 0.17; Outcome = inactive
Fbxl12 → combined z-score class = no change with or without drug; viability z-score with doxorubicin = -1.24; viability z-score without drug = 0.67; Outcome = inactive
